This is one part of the list.
What was measured:
Assay in all cases: glycan array binding signal (z-score within array); higher = stronger binding
Settings in all cases: glycan notation: IUPAC condensed, linker removed
[1] = molecular target: Neu5Ac(a2-6)Gal(b1-4)GlcNAc(b1-2)Man(a1-3)[Man(a1-6)]Man(b1-4)GlcNAc(b1-4)GlcNAc
Outline: (§1)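 Glycan array data were curated from 3228 arrays in the Consortium for Functional Glycomics database and kept only where the protein sequence was available. Glycan names were converted to IUPAC-condensed notation, and columns mapping to the same glycan were averaged. The binding signal is a within-array Z-score, averaged across arrays of the same protein sequence at different concentrations or buffers and across linkers. Negative Z-scores can be read as non-binding.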

[2] = molecular target: Neu5Ac(a2-6)Gal(b1-4)GlcNAc(b1-2)Man(a1-3)[Neu5Ac(a2-3)Gal(b1-4)GlcNAc(b1-2)Man(a1-6)]Man(b1-4)GlcNAc(b1-4)GlcNAc
Outline: as §1

[3] = molecular target: Neu5Ac(a2-6)Gal(b1-4)GlcNAc(b1-2)Man(a1-3)[Neu5Ac(a2-6)Gal(b1-4)GlcNAc(b1-2)Man(a1-6)]Man(b1-4)GlcNAc(b1-4)GlcNAc
Outline: as §1

[4] = molecular target: Neu5Ac(a2-6)Gal(b1-4)GlcNAc(b1-2)Man(a1-3)[Neu5Ac(a2-6)Gal(b1-4)GlcNAc(b1-2)Man(a1-6)]Man(b1-4)GlcNAc(b1-4)[Fuc(a1-6)]GlcNAc
Outline: as §1

[5] = molecular target: Neu5Ac(a2-6)Gal(b1-4)GlcNAc(b1-2)Man(a1-6)Man(b1-4)GlcNAc(b1-4)GlcNAc
Outline: as §1

[6] = molecular target: Neu5Ac(a2-6)Gal(b1-4)GlcNAc(b1-2)Man(a1-6)[Gal(b1-4)GlcNAc(b1-2)Man(a1-3)]Man(b1-4)GlcNAc(b1-4)GlcNAc
Outline: as §1

[7] = molecular target: Neu5Ac(a2-6)Gal(b1-4)GlcNAc(b1-2)Man(a1-6)[GlcNAc(b1-2)Man(a1-3)]Man(b1-4)GlcNAc(b1-4)GlcNAc
Outline: as §1

[8] = molecular target: Neu5Ac(a2-6)Gal(b1-4)GlcNAc(b1-2)Man(a1-6)[Man(a1-3)]Man(b1-4)GlcNAc(b1-4)GlcNAc
Outline: as §1

[9] = molecular target: Neu5Ac(a2-6)Gal(b1-4)GlcNAc(b1-2)[Neu5Ac(a2-6)Gal(b1-4)GlcNAc(b1-4)]Man(a1-3)[GlcNAc(b1-4)][Neu5Ac(a2-6)Gal(b1-4)GlcNAc(b1-2)[Neu5Ac(a2-6)Gal(b1-4)GlcNAc(b1-6)]Man(a1-6)]Man(b1-4)GlcNAc(b1-4)GlcNAc
Outline: as §1

[10] = molecular target: Neu5Ac(a2-6)Gal(b1-4)GlcNAc(b1-2)[Neu5Ac(a2-6)Gal(b1-4)GlcNAc(b1-4)]Man(a1-3)[GlcNAc(b1-4)][Neu5Ac(a2-6)Gal(b1-4)GlcNAc(b1-4)Man(a1-6)]Man(b1-4)GlcNAc(b1-4)GlcNAc
Outline: as §1

[11] = molecular target: Neu5Ac(a2-6)Gal(b1-4)GlcNAc(b1-2)[Neu5Ac(a2-6)Gal(b1-4)GlcNAc(b1-6)]Man(a1-6)[Neu5Ac(a2-6)Gal(b1-4)GlcNAc(b1-2)Man(a1-3)][GlcNAc(b1-4)]Man(b1-4)GlcNAc(b1-4)GlcNAc
Outline: as §1

[12] = molecular target: Neu5Ac(a2-6)Gal(b1-4)GlcNAc(b1-3)Gal(b1-3)GlcNAc
Outline: as §1

[13] = molecular target: Neu5Ac(a2-6)Gal(b1-4)GlcNAc(b1-3)Gal(b1-4)GlcNAc
Outline: as §1

[14] = molecular target: Neu5Ac(a2-6)Gal(b1-4)GlcNAc(b1-3)Gal(b1-4)GlcNAc(b1-2)Man(a1-3)[Neu5Ac(a2-6)Gal(b1-4)GlcNAc(b1-3)Gal(b1-4)GlcNAc(b1-2)Man(a1-6)]GalNAc
Outline: as §1

[15] = molecular target: Neu5Ac(a2-6)Gal(b1-4)GlcNAc(b1-3)Gal(b1-4)GlcNAc(b1-3)Gal(b1-4)GlcNAc
Outline: as §1

[16] = molecular target: Neu5Ac(a2-6)Gal(b1-4)GlcNAc(b1-3)Gal(b1-4)GlcNAc(b1-3)Gal(b1-4)GlcNAc(b1-2)Man(a1-3)[Neu5Ac(a2-6)Gal(b1-4)GlcNAc(b1-3)Gal(b1-4)GlcNAc(b1-3)Gal(b1-4)GlcNAc(b1-2)Man(a1-6)]GalNAc
Outline: as §1

[17] = molecular target: Neu5Ac(a2-6)Gal(b1-4)GlcNAc(b1-3)Gal(b1-4)GlcNAc(b1-3)GalNAc
Outline: as §1

[18] = molecular target: Neu5Ac(a2-6)Gal(b1-4)GlcNAc(b1-3)Gal(b1-4)GlcNAc(b1-3)[Neu5Ac(a2-6)Gal(b1-4)GlcNAc(b1-3)Gal(b1-4)GlcNAc(b1-6)]GalNAc
Outline: as §1

[19] = molecular target: Neu5Ac(a2-6)Gal(b1-4)GlcNAc(b1-3)Gal(b1-4)GlcNAc(b1-6)[Gal(b1-3)]GalNAc
Outline: as §1

[20] = molecular target: Neu5Ac(a2-6)Gal(b1-4)GlcNAc(b1-3)Gal(b1-4)[Fuc(a1-3)]GlcNAc(b1-3)Gal(b1-4)[Fuc(a1-3)]GlcNAc
Outline: as §1

[21] = molecular target: Neu5Ac(a2-6)Gal(b1-4)GlcNAc(b1-3)GalNAc
Outline: as §1

[22] = molecular target: Neu5Ac(a2-6)Gal(b1-4)GlcNAc(b1-3)[Neu5Ac(a2-6)Gal(b1-4)GlcNAc(b1-6)]GalNAc
Outline: as §1

[23] = molecular target: Neu5Ac(a2-6)Gal(b1-4)GlcNAc(b1-6)GalNAc
Outline: as §1

[24] = molecular target: Neu5Ac(a2-6)Gal(b1-4)GlcNAc(b1-6)[Gal(b1-3)GlcNAc(b1-3)]Gal(b1-4)Glc
Outline: as §1

[25] = molecular target: Neu5Ac(a2-6)Gal(b1-4)GlcNAc(b1-6)[Gal(b1-3)]GalNAc
Outline: as §1

[26] = molecular target: Neu5Ac(a2-6)Gal(b1-4)GlcNAc6S
Outline: as §1

Neu5Ac(a2-6)GalNAc = molecular target: Neu5Ac(a2-6)GalNAc
Outline: as §1

[27] = molecular target: Neu5Ac(a2-6)GalNAc(b1-4)GlcNAc
Outline: as §1

[28] = molecular target: Neu5Ac(a2-6)GalNAc(b1-4)GlcNAc6S
Outline: as §1

[29] = molecular target: Neu5Ac(a2-6)GlcNAc(b1-4)GlcNAc
Outline: as §1

B1: CcfD (Bacteroides fragilis), Q5L9G4 (protein)
chain: MKKQNSIYTLLIALLCFVSSCDYLGVSDQLAGGLQNTEQVFDNVSYTKRWYANVFAGIPDYSGINSVNVGAFKNPWTGMCDELVVGYGNSSKYNNSDRNAANMGFHRYGDCYKYIRQANIFLQKAHPIMTTGTQGDQLLEDELTQMKANVRFMRAFYHYLLFEQYGPIILVKDKIYNATEDQDVPRNTVDEVIEYIDSELTAVASELTQEPIFEDKDYRAWPTKGVALAVRAKLWLYAASPLLNGGYREALSVTNPDGTRLFPDYDAGKWEKALAACKDFIDYAEAGRYELYKEYKDDNGAVIDPDKSVYNLFQKYTHEIIWATANNDWGGMNGDAFDRRIAPRCEKNGLGSTGVTQELVDAFYMKDGFPVSATAYLPQSTLYQEEGYGTYKDQNDNFSKKYTNVTVSNRYLNREPRFYNTVFFNGRQWPVSCNQVLFYNGGNSGVQEGQATLTGYMLFKRFNRSVSLTNPGVASQFRPSIIFRLADFYLMYAEAANEVNPNDARVLKYLNLVRERAGLPDIETLNPAIRGNQELQRAAIQRERQIELATEGQRYFDVRRWMIADKNGEGRQNGYVHGMNVRGESNDKEDFNRIVEASQIVFNRKMYLYPMPDSEMRKTKNLVQNPGW
For B1, which “glycan array binding signal (z-score)” value [1] is on record?
Its value is -0.003.

And the “glycan array binding signal (z-score)” value [2]?
The value was -1.02.

And the “glycan array binding signal (z-score)” value [3]?
Its value is 0.561.

What about the “glycan array binding signal (z-score)” value [4] of the same binder?
Its value is 0.266.

And the “glycan array binding signal (z-score)” value [5]?
The value was -0.259.

And the “glycan array binding signal (z-score)” value [6]?
Its value is 1.4.

And the “glycan array binding signal (z-score)” value [7]?
Its value is 4.06.

And the “glycan array binding signal (z-score)” value [8]?
The value was -0.923.

What about the “glycan array binding signal (z-score)” value [9] of the same binder?
Its value is -0.299.

What about the “glycan array binding signal (z-score)” value [10] of the same binder?
The value was -0.627.

And the “glycan array binding signal (z-score)” value [11]?
The value was -0.246.

And the “glycan array binding signal (z-score)” value [12]?
Its value is -0.319.

What about the “glycan array binding signal (z-score)” value [13] of the same binder?
Its value is -0.988.

What about the “glycan array binding signal (z-score)” value [14] of the same binder?
Its value is -0.424.

And the “glycan array binding signal (z-score)” value [15]?
Its value is -1.04.

And the “glycan array binding signal (z-score)” value [16]?
Its value is 2.39.

And the “glycan array binding signal (z-score)” value [17]?
The value was -1.02.

And the “glycan array binding signal (z-score)” value [18]?
Its value is 2.75.

What about the “glycan array binding signal (z-score)” value [19] of the same binder?
The value was -0.818.

And the “glycan array binding signal (z-score)” value [20]?
The value was -1.26.

And the “glycan array binding signal (z-score)” value [21]?
Its value is 1.38.

And the “glycan array binding signal (z-score)” value [22]?
The value was 0.548.

What about the “glycan array binding signal (z-score)” value [23] of the same binder?
Its value is -1.06.

What about the “glycan array binding signal (z-score)” value [24] of the same binder?
The value was 0.903.

And the “glycan array binding signal (z-score)” value [25]?
Its value is -0.47.

And the “glycan array binding signal (z-score)” value [26]?
Its value is 2.06.

And the “glycan array binding signal (z-score)” value (Neu5Ac(a2-6)GalNAc)?
The value was -0.016.

What about the “glycan array binding signal (z-score)” value [27] of the same binder?
Its value is -0.837.

What about the “glycan array binding signal (z-score)” value [28] of the same binder?
Its value is -1.22.

And the “glycan array binding signal (z-score)” value [29]?
Its value is -0.128.

Source: the supplement of paper PMC8728848
